A short description of data set [1]: Pressure loss in membrane separation unit during seawater desalination.

Where two headings read alike, the source gives them in different places.

On to `O=S([O-])O.[Na+]` [Sodium Bisulfite, sodium bisulfite, reference compound], for which the “Increase in Pressure Loss” value in data set [1] (Example 3: NaHSO3 500 ppm, 60 minutes a week, running days 1 to 30, continuous Cl microbicide pre-treatment, listed as NaHSO3) is 0.02 MPa; in data set [1] (Example 3: NaHSO3 500 ppm, 60 minutes a week, running days 1 to 30, continuous Cl microbicide pre-treatment, listed as sodium bisulfite), “about 0.02 MPa”.
In the case of `O=S(=O)(O)O` [Sulfuric Acid, sulfuric acid], the “Increase in Pressure Loss” value in data set [1] (Example 1: sulfuric acid pH 3.5 to 4, 30 min/day, running days 1 to 30) is “No”; in data set [1] (Example 1: sulfuric acid pH 3.5 to 4, 30 min/day, running days 1 to 30, listed as sulfuric acid), “did not change”; in data set [1] (Example 2: sulfuric acid pH 3 to 4, 30 min/day, after 10 days without RO disinfection, compared with the original value) it was 0.01 MPa; in data set [1] (Example 3: sulfuric acid pH 4.0, 60 min/day, running days 1 to 30, intermittent Cl microbicide pre-treatment), “No”; in data set [1] (Example 3: sulfuric acid pH 4.0, 60 min/day, running days 1 to 30, intermittent Cl microbicide pre-treatment, listed as sulfuric acid), “changed little”; in data set [1] (Example 4: sulfuric acid pH 3.0, 60 min/day, running days 51 to 58) it was −0.015 MPa. Besides, in data set [1] (Example 4: sulfuric acid pH 4.0, 60 min/day, running days 79 to 90), the “Increase in Pressure Loss” value is on record as −0.012 MPa. The “pressure loss decreased by” value in data set [1] (Example 4: sulfuric acid pH 3, 1 hour a day, after 8 days) turned out to be 0.015 MPa; in data set [1] (Example 4: sulfuric acid pH 4, 1 hour a day, after 12 days), 0.012 MPa. In addition, the “NaHSO3 Consumption” value (Example 2: sulfuric acid pH 3 to 4, 30 min/day, 35 ppm before treatment) is recorded as 8 ppm; the “NaHSO3 Consumption” value (Example 5: sulfuric acid pH 2.5 (11, 12 & 20th day) and pH 3 (14, 27th), 30 min/day, 21 ppm before treatment) was found to be 10 ppm.

These data come from US6743363B2, “Method of bacteriostasis or disinfection for permselective membrane” (Toray Industries, Inc., priority 1998, dated 2004).
